Measured values published in PMC11213948 (2024).

Sequences of proteins named here, by UniProt entry; tags and fusion partners are left off. A change or cut given only in a name is not applied to a line headed by its entry. A line that says so, or that is headed by a name, gives the form on record, which may keep a tag or linker. Residues count along the entry.
UniProt Q8TEQ6: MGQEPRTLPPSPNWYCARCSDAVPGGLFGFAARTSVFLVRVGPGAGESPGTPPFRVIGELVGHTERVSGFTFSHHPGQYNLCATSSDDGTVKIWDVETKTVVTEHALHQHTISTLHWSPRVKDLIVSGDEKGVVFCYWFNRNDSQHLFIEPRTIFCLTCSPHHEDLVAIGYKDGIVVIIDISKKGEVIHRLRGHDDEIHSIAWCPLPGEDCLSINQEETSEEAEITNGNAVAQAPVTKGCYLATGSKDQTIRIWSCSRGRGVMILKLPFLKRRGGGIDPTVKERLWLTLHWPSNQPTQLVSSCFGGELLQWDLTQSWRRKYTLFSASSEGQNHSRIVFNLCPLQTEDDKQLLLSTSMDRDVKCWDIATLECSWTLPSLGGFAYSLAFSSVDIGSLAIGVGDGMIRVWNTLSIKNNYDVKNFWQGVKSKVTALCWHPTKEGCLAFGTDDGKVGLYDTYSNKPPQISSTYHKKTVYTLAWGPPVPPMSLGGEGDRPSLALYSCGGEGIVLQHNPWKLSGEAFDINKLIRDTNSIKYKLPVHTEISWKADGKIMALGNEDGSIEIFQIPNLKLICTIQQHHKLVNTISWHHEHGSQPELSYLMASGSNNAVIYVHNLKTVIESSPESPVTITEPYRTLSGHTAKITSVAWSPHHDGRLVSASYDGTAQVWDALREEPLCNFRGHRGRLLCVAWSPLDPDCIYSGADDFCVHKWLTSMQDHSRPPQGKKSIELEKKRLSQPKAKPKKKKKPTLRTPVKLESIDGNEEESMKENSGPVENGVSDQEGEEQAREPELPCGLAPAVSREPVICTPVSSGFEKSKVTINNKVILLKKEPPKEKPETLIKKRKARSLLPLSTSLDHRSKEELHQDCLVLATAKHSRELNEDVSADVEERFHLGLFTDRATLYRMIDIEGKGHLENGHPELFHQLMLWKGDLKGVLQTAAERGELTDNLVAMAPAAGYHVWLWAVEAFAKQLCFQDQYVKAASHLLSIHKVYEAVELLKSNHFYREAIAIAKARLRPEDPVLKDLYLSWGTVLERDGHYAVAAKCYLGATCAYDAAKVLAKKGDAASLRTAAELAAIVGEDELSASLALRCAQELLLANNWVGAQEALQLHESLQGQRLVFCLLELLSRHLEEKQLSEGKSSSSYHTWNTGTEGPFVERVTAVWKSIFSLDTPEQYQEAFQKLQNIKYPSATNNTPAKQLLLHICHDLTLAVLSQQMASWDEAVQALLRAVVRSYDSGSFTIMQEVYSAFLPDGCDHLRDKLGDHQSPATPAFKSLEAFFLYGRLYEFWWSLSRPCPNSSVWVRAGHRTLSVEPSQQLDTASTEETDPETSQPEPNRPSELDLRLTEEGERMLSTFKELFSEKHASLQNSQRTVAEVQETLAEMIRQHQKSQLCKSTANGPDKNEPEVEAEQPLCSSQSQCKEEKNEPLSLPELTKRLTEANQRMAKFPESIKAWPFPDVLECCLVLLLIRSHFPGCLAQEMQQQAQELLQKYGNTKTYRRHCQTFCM
TAP-tagged G5_(1–1287): residues 1-1287 of Q8TEQ6
TAP-tagged G5_(1–739): residues 1-739 of Q8TEQ6
TAP-tagged G5_(845–1508): residues 845-1508 of Q8TEQ6
TAP-tagged G5_(845–1508)AxE (Q8TEQ6, form named): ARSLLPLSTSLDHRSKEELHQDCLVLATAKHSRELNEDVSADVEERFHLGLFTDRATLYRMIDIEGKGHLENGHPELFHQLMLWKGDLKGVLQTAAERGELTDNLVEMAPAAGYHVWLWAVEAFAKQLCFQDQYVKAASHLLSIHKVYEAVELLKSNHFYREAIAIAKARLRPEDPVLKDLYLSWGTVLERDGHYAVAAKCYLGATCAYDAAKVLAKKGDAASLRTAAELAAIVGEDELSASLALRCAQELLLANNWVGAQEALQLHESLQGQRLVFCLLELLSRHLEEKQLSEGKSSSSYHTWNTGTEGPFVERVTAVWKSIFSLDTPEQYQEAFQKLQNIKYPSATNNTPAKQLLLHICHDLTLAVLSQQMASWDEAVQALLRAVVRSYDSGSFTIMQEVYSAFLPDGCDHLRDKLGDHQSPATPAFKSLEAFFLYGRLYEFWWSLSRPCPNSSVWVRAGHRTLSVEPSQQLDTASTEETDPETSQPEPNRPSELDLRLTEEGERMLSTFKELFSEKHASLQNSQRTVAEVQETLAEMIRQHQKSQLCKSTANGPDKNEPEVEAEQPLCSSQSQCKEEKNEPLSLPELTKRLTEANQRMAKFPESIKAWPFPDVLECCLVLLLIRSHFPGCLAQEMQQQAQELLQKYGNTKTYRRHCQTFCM
UniProt Q9UHI6: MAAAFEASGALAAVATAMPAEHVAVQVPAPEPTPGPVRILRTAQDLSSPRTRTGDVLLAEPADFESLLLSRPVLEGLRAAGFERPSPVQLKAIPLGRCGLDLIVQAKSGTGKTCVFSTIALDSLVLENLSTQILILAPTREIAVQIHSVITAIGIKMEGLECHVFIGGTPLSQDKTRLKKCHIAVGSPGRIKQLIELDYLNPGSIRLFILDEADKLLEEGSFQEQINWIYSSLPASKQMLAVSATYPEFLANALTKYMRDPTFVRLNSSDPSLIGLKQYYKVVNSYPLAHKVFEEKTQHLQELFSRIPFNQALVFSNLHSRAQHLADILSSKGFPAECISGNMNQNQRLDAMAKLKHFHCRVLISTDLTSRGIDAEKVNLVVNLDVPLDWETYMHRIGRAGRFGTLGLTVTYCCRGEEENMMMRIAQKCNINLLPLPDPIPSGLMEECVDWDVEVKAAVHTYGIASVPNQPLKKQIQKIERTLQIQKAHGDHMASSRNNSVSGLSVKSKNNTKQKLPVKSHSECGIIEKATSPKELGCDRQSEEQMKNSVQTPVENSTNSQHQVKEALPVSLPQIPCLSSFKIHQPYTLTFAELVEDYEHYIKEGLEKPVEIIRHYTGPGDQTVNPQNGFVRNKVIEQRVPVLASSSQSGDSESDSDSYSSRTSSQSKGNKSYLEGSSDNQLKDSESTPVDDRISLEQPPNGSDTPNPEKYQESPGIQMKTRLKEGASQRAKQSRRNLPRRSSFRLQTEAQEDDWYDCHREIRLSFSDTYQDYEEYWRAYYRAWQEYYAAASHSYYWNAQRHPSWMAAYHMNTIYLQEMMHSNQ
UniProt Q8WXD5: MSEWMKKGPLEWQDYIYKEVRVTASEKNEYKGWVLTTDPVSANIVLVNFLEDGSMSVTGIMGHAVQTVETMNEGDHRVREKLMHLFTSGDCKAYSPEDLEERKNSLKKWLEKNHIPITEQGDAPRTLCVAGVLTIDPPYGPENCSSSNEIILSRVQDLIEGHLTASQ
UniProt Q16637: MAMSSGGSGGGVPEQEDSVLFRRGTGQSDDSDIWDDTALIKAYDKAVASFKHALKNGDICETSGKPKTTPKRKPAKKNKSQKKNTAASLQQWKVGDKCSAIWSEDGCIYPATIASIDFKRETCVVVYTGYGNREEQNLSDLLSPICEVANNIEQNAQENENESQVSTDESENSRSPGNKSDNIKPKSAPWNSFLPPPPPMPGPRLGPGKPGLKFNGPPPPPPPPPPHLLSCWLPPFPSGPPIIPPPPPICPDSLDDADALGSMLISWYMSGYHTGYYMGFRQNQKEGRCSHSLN
UniProt O14893: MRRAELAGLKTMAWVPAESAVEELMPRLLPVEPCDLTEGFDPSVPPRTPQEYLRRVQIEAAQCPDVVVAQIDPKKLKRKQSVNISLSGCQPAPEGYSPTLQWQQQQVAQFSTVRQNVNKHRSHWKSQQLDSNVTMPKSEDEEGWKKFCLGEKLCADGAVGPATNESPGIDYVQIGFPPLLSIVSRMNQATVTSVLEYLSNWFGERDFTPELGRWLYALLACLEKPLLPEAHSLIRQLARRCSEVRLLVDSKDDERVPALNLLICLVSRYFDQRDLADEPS
UniProt P57678: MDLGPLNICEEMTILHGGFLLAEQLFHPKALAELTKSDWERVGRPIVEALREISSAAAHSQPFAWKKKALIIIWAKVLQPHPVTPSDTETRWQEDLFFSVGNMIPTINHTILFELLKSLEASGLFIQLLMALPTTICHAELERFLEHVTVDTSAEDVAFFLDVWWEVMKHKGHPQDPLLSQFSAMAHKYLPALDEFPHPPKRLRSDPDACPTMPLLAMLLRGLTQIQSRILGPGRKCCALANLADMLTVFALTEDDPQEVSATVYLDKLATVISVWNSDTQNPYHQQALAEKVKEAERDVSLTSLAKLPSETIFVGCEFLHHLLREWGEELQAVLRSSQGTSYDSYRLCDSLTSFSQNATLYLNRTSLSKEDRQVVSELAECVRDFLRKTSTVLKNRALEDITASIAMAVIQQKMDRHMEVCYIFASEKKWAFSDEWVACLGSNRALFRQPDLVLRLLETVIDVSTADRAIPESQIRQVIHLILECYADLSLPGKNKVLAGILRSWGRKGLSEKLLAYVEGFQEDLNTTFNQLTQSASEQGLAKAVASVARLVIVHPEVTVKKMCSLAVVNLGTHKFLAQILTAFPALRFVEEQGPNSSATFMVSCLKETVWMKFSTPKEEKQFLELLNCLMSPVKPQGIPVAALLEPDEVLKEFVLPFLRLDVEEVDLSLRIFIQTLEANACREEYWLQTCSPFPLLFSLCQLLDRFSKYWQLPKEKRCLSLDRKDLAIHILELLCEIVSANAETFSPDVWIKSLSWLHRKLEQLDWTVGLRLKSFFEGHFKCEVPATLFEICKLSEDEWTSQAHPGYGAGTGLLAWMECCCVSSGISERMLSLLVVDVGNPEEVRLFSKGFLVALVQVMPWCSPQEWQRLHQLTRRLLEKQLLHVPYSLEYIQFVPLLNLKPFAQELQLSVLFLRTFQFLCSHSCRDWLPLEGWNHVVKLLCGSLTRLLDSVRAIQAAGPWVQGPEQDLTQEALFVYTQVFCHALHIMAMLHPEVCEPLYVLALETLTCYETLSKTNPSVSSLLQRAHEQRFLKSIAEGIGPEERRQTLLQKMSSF
UniProt P11940: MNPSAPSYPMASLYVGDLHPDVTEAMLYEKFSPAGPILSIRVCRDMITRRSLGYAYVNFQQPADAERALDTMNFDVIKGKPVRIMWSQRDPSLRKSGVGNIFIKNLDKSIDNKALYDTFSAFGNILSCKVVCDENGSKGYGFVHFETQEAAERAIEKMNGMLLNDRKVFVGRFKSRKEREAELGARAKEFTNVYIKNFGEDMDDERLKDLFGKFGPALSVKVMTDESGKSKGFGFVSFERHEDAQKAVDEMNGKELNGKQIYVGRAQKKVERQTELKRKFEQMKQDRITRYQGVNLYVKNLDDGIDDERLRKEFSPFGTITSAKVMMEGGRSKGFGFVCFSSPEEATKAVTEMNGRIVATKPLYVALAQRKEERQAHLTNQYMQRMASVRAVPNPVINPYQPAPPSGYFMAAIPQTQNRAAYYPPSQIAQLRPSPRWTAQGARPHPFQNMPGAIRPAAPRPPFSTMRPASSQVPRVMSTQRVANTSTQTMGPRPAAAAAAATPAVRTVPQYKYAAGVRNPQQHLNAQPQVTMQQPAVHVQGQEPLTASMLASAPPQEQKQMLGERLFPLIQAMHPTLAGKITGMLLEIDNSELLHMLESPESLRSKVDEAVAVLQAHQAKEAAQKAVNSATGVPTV

How the values were obtained:
Assay in all cases: affinity purification with mass spectrometry; TAP (two steps, TEV digestion then calmodulin) of TAP-tagged Gemin5 regions from transfected HEK293 cells, LC-MS/MS; no RNase
TAP-tagged G5_(845–1508) = TAP-tagged G5_(845–1508) (UniProt Q8TEQ6)
TAP-tagged G5_(1–1287) = TAP-tagged G5_(1–1287) (UniProt Q8TEQ6)
TAP-tagged G5_(1–739) = TAP-tagged G5_(1–739) (UniProt Q8TEQ6)
[1] = molecular target: TAP-tagged G5_(845–1508)AxE (UniProt Q8TEQ6)

| Molecule | binding (TAP-tagged G5_(845–1508)) | binding (TAP-tagged G5_(1–1287)) | binding (TAP-tagged G5_(1–739)) | binding [1] |
| --- | --- | --- | --- | --- |
| Gemin3 (from UniProt Q9UHI6 1-824) | binds | binds | no binding |  |
| Gemin6 (from UniProt Q8WXD5 1-167) | binds | binds |  |  |
| SMN (from UniProt Q16637 1-294) | binds | binds | no binding |  |
| endogenous Gemin5 (from UniProt Q8TEQ6 1-1508) | binds |  | no binding |  |
| Gemin8 (protein, UniProt Q9NWZ8 1-242) MAAVKASTSKATRPWYSHPVYARYWQHYHQAMAWMQSHHNAYRKAVESCFNLPWYLPSALLPQSSYDNEAAYPQSFYDHHVAWQDYPCSSSHFRRSGQHPRYSSRIQASTKEDQALSKEEEMETESDAEVECDLSNMEITEELRQYFAETERHREERRRQQQLDAERLDSYVNADHDLYCNTRRSVEAPTERPGERRQAEMKRLYGDSAAKIQAMEAAVQLSFDKHCDRKQPKYWPVIPLKF | binds | binds |  |  |

More lines, now with the values ahead:

| binding (TAP-tagged G5_(845–1508)) | binding (TAP-tagged G5_(1–1287)) | binding (TAP-tagged G5_(1–739)) | binding [1] | Molecule |
| --- | --- | --- | --- | --- |
| binds | binds |  |  | Gemin2 (from UniProt O14893 1-280) |
| binds | binds | no binding | no binding | Gemin4 (from UniProt P57678 1-1058) |
| binds | binds | binds | no binding | poly(A) binding protein cytoplasmic 1 (from UniProt P11940 1-636) |

These are yes or no findings as the source states them, for the method shown. Binding seen in cells or lysates may run through a third protein. A yes stands for co-enrichment or nearness to the bait. Other partners may have been found. For some of these results: No binding means not detected with the bait.
